Assay results published in PMC12623807.
No constants are given. Whether binding was seen depends on the method and setting. In cells and extracts the contact can be indirect. Some binding calls cover weakened binding; strength is not graded here.

The chains behind the UniProt entries cited, without tags or fusion partners.
UniProt Q9NZM1: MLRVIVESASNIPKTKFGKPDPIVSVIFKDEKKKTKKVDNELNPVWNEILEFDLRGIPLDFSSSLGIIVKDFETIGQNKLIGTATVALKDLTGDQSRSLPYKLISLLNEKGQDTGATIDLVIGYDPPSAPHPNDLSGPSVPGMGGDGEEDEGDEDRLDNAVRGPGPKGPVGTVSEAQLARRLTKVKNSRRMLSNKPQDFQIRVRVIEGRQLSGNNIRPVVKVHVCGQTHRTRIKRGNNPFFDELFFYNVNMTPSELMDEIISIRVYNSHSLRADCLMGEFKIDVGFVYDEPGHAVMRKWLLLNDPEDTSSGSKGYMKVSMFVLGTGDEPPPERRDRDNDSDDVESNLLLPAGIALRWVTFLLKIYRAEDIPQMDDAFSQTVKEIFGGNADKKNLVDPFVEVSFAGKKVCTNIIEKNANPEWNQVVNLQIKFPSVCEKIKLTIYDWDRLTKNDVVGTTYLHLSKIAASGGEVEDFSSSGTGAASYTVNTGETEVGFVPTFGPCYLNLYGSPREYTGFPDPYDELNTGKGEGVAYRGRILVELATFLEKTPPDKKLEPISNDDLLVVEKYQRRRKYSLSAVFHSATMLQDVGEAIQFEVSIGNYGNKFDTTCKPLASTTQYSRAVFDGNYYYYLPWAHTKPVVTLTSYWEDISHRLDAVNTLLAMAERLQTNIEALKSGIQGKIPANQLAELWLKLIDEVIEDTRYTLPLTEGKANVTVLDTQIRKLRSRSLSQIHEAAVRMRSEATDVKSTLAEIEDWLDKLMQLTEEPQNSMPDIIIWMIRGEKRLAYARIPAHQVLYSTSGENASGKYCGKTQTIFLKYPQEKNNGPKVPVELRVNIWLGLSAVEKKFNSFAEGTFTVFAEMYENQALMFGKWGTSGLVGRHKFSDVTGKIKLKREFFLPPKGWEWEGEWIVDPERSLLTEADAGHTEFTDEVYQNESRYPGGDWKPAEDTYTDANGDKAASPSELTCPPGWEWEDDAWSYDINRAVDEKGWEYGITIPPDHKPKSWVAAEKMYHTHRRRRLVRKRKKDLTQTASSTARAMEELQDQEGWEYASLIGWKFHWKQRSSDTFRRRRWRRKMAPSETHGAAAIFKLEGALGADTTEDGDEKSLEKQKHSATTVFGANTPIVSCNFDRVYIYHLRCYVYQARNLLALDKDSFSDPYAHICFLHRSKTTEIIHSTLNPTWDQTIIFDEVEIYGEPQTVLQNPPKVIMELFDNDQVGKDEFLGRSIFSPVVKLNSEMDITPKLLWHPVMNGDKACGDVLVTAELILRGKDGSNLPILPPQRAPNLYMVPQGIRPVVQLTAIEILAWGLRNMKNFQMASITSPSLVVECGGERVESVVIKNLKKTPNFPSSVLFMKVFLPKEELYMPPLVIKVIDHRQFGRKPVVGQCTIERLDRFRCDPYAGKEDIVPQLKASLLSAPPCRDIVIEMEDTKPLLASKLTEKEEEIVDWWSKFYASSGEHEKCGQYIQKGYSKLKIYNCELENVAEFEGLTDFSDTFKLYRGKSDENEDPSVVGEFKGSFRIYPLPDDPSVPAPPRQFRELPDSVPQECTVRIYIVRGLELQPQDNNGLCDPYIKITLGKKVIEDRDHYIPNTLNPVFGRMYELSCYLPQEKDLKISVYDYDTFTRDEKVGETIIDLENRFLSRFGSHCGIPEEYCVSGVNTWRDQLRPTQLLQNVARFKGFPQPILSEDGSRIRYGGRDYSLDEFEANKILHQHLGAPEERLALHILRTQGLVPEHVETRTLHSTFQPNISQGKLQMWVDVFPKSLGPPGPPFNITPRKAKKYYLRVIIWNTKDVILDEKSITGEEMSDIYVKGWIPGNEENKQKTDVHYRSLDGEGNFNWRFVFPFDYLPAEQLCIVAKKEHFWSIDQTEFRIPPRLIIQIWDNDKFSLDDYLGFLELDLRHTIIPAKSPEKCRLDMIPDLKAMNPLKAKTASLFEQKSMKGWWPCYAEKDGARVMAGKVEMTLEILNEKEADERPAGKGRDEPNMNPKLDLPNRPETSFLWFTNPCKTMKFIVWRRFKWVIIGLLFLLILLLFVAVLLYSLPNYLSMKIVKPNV

Target: myoferlin (human (endogenous in HPSC127/CAF01 myCAFs)) (UniProt Q9NZM1)
Experiment: proximity ligation; Duolink in situ PLA on fixed (4% paraformaldehyde), permeabilised myCAFs (CAF01); primary antibodies 1/100 overnight at 4 °C; control without primary antibodies; PLA dots lost in MYOF knock-down myCAFs (shMYOF#1, shMYOF#2)

binding: binds
B1: TGFß-receptor 1 (receptor, UniProt P36897 34-503)
chain: LQCFCHLCTKDNFTCVTDGLCFVSVTETTDKVIHNSMCIAEIDLIPRDRPFVCAPSSKTGSVTTTYCCNQDHCNKIELPTTVKSSPGLGPVELAAVIAGPVCFVCISLMLMVYICHNRTVIHHRVPNEEDPSLDRPFISEGTTLKDLIYDMTTSGSGSGLPLLVQRTIARTIVLQESIGKGRFGEVWRGKWRGEEVAVKIFSSREERSWFREAEIYQTVMLRHENILGFIAADNKDNGTWTQLWLVSDYHEHGSLFDYLNRYTVTVEGMIKLALSTASGLAHLHMEIVGTQGKPAIAHRDLKSKNILVKKNGTCCIADLGLAVRHDSATDTIDIAPNHRVGTKRYMAPEVLDDSINMKHFESFKRADIYAMGLVFWEIARRCSIGGIHEDYQLPYYDLVPSDPSVEEMRKVVCEQKLRPNIPNRWQSCEALRVMAKIMRECWYANGAARLTALRIKKTLSQLSQQEGIKM
